These are yes or no findings as the source states them, for the method shown. In cells and extracts the contact can be indirect.
Columns and labels:
[1] = target: T1, apolipoprotein O-like protein (APOOL) (human (endogenous in HeLa)) (UniProt Q6UXV4); assay: co-IP; endogenous proteins; HeLa mitochondria (250 µg) solubilized with digitonin (detergent:protein 4:1) at 4°C; 1 µg antibody against APOOL or Mitofilin, or preimmune serum, protein A beads; washed with PBS, 0.01% digitonin; eluted with 0.1 M citric acid; western blot
T1 sequence: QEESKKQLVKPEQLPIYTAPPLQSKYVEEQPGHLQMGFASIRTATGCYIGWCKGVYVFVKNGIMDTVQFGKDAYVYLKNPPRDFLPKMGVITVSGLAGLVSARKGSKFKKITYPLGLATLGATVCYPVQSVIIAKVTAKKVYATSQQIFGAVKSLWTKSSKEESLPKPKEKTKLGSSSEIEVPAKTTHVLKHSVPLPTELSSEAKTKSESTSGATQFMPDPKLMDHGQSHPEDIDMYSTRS

Chains of the proteins cited; added tags and fusions are not shown. Residues count along the entry.
UniProt P25705, residues 44-553: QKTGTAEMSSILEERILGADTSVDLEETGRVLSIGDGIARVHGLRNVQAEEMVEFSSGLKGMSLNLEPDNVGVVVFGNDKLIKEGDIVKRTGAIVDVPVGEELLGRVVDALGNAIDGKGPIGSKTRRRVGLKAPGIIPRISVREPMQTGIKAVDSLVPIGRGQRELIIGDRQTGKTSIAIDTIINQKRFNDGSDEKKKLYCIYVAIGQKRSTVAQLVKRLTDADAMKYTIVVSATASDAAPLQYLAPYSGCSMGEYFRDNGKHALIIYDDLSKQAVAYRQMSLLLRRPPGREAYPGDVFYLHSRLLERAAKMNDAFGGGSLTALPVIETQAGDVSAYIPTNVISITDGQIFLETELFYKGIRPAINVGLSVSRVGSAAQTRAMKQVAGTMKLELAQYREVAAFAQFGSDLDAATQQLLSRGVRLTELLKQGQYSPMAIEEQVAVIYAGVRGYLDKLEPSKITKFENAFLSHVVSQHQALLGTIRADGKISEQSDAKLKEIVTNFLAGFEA

[2] = target: T2, Mitofilin (human (endogenous in HeLa)) (UniProt Q16891); assay: as above
T2 sequence: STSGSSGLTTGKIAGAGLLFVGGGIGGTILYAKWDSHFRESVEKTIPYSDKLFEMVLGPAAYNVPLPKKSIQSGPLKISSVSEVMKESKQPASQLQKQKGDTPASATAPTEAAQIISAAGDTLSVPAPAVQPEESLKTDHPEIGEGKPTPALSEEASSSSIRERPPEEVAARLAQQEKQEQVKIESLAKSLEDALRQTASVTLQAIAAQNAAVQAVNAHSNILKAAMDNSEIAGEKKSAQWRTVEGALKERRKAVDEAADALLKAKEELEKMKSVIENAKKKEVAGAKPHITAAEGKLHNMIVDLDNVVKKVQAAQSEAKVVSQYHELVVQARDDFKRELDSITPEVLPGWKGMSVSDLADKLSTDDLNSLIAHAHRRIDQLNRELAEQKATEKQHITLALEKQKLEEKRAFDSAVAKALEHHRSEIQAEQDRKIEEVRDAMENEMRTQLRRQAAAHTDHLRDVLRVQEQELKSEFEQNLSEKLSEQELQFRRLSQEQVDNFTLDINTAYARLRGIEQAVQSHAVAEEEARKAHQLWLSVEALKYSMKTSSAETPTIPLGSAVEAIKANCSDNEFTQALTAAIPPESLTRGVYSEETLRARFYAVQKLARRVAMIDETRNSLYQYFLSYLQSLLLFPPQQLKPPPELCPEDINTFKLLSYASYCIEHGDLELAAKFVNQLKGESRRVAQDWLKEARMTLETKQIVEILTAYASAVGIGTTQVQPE

binding [1]: no binding
binding [2]: no binding
Substance: subunit F1α of the F1FO ATP synthase (from UniProt P25705 44-553)
